Measurements taken from paper PMC8384468.
These are yes or no findings as the source states them, for the method shown. Where a sequence is shown, tags or fusion partners need not be part of it.

Target: T1, Mycobacterium smegmatis mycobacterial membrane protein large 3 (MmpL3) transporter, full length (M. smegmatis), A0QP27
T1 chain: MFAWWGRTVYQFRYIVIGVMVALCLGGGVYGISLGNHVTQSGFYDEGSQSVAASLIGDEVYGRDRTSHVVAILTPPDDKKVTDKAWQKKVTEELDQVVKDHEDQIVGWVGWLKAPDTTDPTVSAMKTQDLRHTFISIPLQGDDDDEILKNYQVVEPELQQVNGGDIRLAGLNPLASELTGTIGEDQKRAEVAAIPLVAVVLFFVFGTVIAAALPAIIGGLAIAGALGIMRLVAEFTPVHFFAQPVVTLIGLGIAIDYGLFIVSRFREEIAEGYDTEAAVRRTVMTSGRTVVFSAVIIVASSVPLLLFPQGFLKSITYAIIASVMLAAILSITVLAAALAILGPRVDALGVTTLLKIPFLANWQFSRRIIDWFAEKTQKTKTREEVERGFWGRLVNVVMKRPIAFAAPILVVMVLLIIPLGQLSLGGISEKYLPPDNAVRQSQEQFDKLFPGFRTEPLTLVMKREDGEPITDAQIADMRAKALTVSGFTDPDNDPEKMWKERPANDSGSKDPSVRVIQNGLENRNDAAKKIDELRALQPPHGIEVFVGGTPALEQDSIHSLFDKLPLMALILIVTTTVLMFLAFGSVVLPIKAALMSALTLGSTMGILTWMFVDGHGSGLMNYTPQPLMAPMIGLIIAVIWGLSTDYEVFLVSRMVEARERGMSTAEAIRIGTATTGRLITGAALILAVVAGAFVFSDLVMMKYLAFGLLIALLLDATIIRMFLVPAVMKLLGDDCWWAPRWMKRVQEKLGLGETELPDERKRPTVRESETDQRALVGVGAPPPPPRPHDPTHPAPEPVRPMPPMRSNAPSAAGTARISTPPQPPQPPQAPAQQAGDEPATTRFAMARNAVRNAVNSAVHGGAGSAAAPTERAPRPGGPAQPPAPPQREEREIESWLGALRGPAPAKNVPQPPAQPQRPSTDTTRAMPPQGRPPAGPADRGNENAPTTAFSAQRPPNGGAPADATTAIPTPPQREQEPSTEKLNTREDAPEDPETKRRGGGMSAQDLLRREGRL
Experiment: cryo-EM structure; single-particle cryo-EM of delipidated MmpL3 reconstituted in nanodiscs (10 uM MmpL3, 30 uM MSP cNW9, 900 uM E. coli total extract lipid); Superose 6 in 20 mM Tris-HCl (pH 7.5), 100 mM NaCl; C1 symmetry; both purified
Details: remark: other sources report otherwise

B1: Mycobacterium smegmatis mycobacterial membrane protein large 3 (MmpL3) transporter, full length, A0QP27 1-1013 (protein)
chain: T1 chain
binding: no binding
